Measured values: patent US11241440B2, “Dihydrooxadiazine compounds for treating infections and cancer” (VALORALIA I MÁS D, SL, priority 2016, dated 2022)

Tested on: Candida parapsilosis
Test: EUCAST broth dilution antifungal susceptibility test (MIC)
Assay type: cell-based
Conditions: 50% inhibition, 24 hours at 35° C., dilution range 64 to 0.12 mg/l
Method: Filamentous fungi and yeasts strains, from clinical origin, were supplied by Microbiology Service from The Princess Hospital, Madrid. They are detailed in Table III. Filamentous fungi and yeast cells suspensions in distilled water was prepared from a culture of 24-48 h, depending on species, in Sabouraud agar. Each suspension was adjusted to a fixed size inoculum of 1-5×10^8 CFU/ml with a spectrophotometer (Ferraro, M J National Committee for Clinical Laboratory Standards. 2000). Antifungal susceptibility tests were developed following the standardized methodology detailed by the European Committee on Antimicrobial Susceptibility Testing (EUCAST) documents 7.2 (method for the determination of broth dilution minimum inhibitory concentrations of antifungal agents for yeasts EDef 7.2) and 9.2 (Method for the determination of broth dilution minimum inhibitory concentrations of antifungal agents for conidia forming foulds). The compound was dissolved in DMSO and diluted with RPMI plates with 2% glucose to pH 7 with MOPS buffer. […] Plates were inoculated with a yeast suspension or filamentous fungal spores (1-5×10^5 cls/ml). The results were evaluated after 24 hours incubation at 35° C. and absorbance reading at 530 nm.

For `OC(Cn1cncn1)(Cn1cncn1)c1ccc(F)cc1F` [Fluconazole], the “MIC (minimum inhibitory concentration)” value was 1.
